Measured values as given in publication PMC6582314, “Ligands Exert Biased Activity to Regulate Sigma 1 Receptor Interactions With Cationic TRPA1, TRPV1, and TRPM8 Channels” (Frontiers in Pharmacology, 2019).
Results are given in words; binding and its absence hold for the method and conditions named. For part of these data: Where a sequence is shown, tags or fusion partners need not be part of it.

Tests used:
[1] = biological target: TRPA1 C-terminal cytosolic region (aa 961-1125), GST-tagged (mouse) (UniProt Q8BLA8); test: pull-down; TRP sequence (100 nM) covalently attached to NHS-activated Sepharose 4FF; prey 200 nM; 200 µL 50 mM Tris-HCl pH 7.5, 0.2% CHAPS, without CaCl2; 30 min at RT, three washes; Western blot; both purified
[2] = biological target: TRPA1 C-terminal cytosolic region (aa 961-1125), GST-tagged (mouse) (UniProt Q8BLA8); test: pull-down; TRP sequence (100 nM) covalently attached to NHS-activated Sepharose 4FF; prey 200 nM; 200 µL 50 mM Tris-HCl pH 7.5, 0.2% CHAPS, with 3 mM CaCl2; 30 min at RT, three washes; Western blot; both purified
[3] = biological target: TRPM8 N-terminal cytosolic region (aa 1-639), GST-tagged (mouse) (UniProt Q8R4D5); test: pull-down; TRP sequence (100 nM) covalently attached to NHS-activated Sepharose 4FF; prey 200 nM; 200 µL 50 mM Tris-HCl pH 7.5, 0.2% CHAPS, without CaCl2; 30 min at RT, three washes; Western blot; both purified

binding [1]	binding [2]	Binder	binding [3]
no binding (tested: 200 nM)	no binding (tested: 200 nM)	histidine triad nucleotide-binding protein 1 (HINT1), murine, GST-free (natural protein, mouse, UniProt P70349 1-126, looked up, source: E. coli BL21 (KRX), purified (GStrap FF or HaloLink Resin, cleaved with ProTEV protease, ion exchange); not shown: GST, N-terminal, cleaved) MADEIAKAQVAQPGGDTIFGKIIRKEIPAKIIFEDDRCLAFHDISPQAPTHFLVIPKKHISQISVADDDDESLLGHLMIVGKKCAADLGLKRGYRMVVNEGADGGQSVYHIHLHVLGGRQMNWPPG	–
–	–	sigma 1 receptor (σ1R), full-length murine, GST-free (natural protein, mouse, UniProt O55242 1-223, looked up, sigma 1 receptor, mouse, GenBank AF004927, coding region of the full-length protein; 223 amino acids; also called type 1 sigma receptor; source: E. coli BL21 (KRX), purified (GStrap FF or HaloLink Resin, cleaved with ProTEV protease, ion exchange); not shown: GST, N-terminal, cleaved) MPWAAGRRWAWITLILTIIAVLIQAAWLWLGTQNFVFSREEIAQLARQYAGLDHELAFSRLIVELRRLHPGHVLPDEELQWVFVNAGGWMGAMCILHASLSEYVLLFGTALGSHGHSGRYWAEISDTIISGTFHQWKEGTTKSEVFYPGETVVHGPGEATALEWGPNTWMVEYGRGVIPSTLFFALADTFFSTQDYLTLFYTLRAYARGLRLELTTYLFGQDS	no binding (condition: in the absence of calcium (200 nM))
